Assay [1] addresses HCLS1-associated protein X-1 (HAX1), endogenous (human (endogenous in HeLa and MCF7)) (UniProt O00165). Kind of assay: affinity purification with mass spectrometry; MCF7 lysate (150 mM NaCl, 20 mM Tris/HCl pH 7.4, 0.75% Nonidet-P40); endogenous HAX1 precipitated with anti-HAX1 rabbit polyclonal antibody on Dynabeads protein A, overnight, 4°C; control: IgG; LC-MS/MS.
Assay [2] has the same target. Description: affinity purification with mass spectrometry; HeLa lysate (150 mM NaCl, 20 mM Tris/HCl pH 7.4, 0.75% Nonidet-P40); endogenous HAX1 precipitated with anti-HAX1 rabbit polyclonal antibody on Dynabeads protein A, overnight, 4°C; controls: IgG and HAX1 KO cells; LC-MS/MS.

By UniProt entry, the sequences of proteins in these tests, tags left out.
UniProt O14965: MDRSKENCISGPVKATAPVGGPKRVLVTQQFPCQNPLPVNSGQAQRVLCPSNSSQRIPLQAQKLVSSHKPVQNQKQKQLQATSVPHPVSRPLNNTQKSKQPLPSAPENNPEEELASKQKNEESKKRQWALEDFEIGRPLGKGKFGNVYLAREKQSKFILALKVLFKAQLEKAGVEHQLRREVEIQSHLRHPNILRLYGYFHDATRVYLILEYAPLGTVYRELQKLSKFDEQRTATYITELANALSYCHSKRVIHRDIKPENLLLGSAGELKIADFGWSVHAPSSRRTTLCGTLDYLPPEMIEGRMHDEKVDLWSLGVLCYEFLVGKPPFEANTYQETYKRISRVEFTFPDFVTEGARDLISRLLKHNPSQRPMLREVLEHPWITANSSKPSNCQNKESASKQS
UniProt O14949: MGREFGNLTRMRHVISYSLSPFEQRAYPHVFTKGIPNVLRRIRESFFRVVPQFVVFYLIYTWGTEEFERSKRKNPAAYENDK
UniProt Q9UH03: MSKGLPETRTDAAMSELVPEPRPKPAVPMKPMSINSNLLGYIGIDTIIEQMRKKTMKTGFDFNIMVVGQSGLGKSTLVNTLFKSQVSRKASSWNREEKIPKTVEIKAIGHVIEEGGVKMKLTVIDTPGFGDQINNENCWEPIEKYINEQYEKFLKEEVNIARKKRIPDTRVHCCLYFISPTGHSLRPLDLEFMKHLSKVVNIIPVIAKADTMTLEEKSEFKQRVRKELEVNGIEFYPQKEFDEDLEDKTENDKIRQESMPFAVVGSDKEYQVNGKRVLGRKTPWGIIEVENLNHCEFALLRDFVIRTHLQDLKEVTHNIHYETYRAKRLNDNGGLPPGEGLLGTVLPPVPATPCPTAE

No constants are given. Whether binding was seen depends on the method and setting. In cells and extracts the contact can be indirect. A yes stands for co-enrichment or nearness to the bait. Other partners may have been found.

As for “Aurora A kinase (AURKA), endogenous (from UniProt O14965 1-403)”, the binding entry in assay [1] was “binds”. Consider “UQCRQ, endogenous (from UniProt O14949 1-82)”, for which the binding result in assay [2] is reported as “binds”. Consider “sequestosome (SQSTM1), endogenous (from UniProt Q13501 1-440)”, for which the binding result in assay [1] is “binds”. Still for that read-out and setting: with “SEPT3, endogenous (from UniProt Q9UH03 1-358)” the entry was “binds”.

For the origin of these results see article PMC7670567.
